Results as given in article PMC10652104.
Read-outs that look alike come from different tables or passages of the source. Results are given in words; binding and its absence hold for the method and conditions named. Binding seen in cells or lysates may run through a third protein. Some binding calls cover weakened binding; strength is not graded here. Blank lines part the entries; values can stand above or below the molecule they belong to.

The chains behind the UniProt entries cited, without tags or fusion partners.
UniProt Q13576: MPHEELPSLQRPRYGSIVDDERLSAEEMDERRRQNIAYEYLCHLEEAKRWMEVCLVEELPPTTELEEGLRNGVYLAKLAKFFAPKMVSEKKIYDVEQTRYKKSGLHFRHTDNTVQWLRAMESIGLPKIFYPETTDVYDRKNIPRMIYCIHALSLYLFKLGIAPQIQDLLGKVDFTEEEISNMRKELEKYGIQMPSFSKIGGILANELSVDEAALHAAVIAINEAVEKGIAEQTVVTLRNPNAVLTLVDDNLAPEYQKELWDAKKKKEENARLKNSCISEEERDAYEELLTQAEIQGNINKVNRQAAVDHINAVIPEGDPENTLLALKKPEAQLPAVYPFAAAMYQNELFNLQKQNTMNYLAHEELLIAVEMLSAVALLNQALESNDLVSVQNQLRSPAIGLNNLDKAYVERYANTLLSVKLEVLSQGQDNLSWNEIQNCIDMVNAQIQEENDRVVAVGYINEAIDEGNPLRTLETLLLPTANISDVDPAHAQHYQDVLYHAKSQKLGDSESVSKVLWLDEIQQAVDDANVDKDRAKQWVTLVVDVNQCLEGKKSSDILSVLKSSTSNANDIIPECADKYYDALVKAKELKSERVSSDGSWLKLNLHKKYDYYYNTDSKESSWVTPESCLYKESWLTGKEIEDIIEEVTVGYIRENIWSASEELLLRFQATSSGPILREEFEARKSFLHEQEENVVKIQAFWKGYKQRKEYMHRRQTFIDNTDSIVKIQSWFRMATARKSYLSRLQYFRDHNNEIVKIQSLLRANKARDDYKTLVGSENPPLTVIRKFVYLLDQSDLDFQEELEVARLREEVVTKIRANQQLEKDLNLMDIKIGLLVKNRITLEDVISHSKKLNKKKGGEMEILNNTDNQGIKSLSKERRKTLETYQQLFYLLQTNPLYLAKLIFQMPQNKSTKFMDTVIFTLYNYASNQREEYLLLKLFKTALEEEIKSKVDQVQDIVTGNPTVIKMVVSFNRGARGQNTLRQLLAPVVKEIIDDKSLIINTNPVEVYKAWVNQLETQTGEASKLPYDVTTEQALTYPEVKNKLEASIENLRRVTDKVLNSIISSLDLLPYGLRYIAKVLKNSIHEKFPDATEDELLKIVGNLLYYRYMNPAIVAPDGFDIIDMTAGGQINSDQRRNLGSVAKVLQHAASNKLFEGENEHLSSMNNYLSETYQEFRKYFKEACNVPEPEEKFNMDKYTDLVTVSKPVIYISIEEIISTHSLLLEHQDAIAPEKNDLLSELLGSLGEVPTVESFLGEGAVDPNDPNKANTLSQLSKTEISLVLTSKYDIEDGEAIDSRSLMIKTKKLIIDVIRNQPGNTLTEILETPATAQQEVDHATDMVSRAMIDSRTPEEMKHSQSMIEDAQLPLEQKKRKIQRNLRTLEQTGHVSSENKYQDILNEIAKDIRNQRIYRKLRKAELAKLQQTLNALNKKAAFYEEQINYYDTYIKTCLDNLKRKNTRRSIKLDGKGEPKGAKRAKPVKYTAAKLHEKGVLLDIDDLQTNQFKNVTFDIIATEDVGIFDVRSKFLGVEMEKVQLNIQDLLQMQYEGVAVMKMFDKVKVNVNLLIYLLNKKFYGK
UniProt Q3UQ44: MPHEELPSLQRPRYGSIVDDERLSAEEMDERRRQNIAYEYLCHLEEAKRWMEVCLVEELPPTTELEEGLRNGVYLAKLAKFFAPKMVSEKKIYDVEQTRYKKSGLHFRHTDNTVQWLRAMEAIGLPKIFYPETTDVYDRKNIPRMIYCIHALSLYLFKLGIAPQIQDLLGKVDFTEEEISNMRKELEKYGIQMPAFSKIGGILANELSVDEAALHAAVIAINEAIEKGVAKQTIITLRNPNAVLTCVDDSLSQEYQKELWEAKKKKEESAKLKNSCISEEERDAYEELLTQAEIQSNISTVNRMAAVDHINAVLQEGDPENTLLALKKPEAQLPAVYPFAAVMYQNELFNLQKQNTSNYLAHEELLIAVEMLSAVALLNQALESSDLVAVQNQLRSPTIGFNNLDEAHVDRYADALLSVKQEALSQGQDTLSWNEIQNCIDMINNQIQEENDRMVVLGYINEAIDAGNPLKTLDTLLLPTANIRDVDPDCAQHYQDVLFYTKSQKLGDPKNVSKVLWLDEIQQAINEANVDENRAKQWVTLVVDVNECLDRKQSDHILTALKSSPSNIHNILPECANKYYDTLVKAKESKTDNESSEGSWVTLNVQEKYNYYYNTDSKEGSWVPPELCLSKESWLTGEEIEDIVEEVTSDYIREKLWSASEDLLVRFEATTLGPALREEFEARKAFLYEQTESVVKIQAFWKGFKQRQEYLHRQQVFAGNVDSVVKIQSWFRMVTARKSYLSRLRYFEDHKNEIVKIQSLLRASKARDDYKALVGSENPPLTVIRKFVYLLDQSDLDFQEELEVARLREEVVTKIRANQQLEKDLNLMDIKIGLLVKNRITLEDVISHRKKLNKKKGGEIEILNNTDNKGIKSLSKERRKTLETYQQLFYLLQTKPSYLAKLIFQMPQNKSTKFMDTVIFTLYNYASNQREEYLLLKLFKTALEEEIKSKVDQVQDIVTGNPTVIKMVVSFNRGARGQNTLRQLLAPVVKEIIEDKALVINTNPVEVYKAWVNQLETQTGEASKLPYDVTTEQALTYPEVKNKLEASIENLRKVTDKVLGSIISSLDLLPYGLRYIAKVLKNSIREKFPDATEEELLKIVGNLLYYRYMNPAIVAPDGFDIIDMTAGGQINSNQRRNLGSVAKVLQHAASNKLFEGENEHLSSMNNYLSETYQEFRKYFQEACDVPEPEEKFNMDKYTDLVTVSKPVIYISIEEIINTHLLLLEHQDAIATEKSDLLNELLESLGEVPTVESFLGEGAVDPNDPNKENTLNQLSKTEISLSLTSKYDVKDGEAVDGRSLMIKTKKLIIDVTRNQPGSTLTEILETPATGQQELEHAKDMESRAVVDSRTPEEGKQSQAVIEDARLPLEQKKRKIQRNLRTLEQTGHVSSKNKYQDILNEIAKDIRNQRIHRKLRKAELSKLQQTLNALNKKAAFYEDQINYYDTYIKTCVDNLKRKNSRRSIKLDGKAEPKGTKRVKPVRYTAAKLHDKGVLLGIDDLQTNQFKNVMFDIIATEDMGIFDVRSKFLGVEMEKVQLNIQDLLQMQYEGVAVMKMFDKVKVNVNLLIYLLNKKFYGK
UniProt P35568: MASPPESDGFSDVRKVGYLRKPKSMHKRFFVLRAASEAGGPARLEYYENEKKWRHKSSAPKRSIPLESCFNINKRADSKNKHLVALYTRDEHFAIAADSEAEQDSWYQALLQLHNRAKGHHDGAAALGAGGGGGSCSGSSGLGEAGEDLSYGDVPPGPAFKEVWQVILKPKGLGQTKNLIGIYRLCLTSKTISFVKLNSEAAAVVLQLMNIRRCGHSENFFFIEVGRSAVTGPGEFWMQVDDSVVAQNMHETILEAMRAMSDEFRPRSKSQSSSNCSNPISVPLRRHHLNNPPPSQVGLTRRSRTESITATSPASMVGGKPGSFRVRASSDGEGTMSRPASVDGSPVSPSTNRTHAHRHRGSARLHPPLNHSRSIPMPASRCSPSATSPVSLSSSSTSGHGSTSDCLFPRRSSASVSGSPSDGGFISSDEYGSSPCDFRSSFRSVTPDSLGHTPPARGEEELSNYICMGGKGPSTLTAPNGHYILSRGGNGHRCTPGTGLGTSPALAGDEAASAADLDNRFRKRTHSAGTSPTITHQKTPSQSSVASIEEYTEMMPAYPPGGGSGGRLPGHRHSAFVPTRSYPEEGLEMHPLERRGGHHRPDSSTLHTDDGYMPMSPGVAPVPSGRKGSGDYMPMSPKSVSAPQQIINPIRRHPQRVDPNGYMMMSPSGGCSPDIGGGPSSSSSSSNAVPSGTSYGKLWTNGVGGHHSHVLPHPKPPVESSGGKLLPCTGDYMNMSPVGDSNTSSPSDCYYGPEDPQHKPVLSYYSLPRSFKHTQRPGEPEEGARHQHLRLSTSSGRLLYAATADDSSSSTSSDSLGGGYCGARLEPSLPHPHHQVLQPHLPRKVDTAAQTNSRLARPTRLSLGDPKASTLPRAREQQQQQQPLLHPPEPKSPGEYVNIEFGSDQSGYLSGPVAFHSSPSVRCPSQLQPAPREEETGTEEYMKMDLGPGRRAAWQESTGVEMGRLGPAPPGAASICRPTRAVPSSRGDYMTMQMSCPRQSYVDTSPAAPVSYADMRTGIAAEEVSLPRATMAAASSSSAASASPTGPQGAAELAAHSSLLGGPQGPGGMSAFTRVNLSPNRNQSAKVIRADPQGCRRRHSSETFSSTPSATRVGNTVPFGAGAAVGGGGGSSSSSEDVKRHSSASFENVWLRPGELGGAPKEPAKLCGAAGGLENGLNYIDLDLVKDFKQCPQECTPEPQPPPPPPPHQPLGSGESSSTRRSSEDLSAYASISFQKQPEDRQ

Key:
[1] = biological target: IQ motif-containing GTPase activating protein 2 (IQGAP2), human, in HEK293T cells (human (endogenous in HEK293T)) (UniProt Q13576); assay: co-IP; HEK293T cell lysate in 1% NP-40 lysis buffer (25 mM Hepes pH 7.8, 150 mM NaCl, 5 mM EDTA, 0.5 mM CaCl2); protein A/G magnetic beads prebound with anti-IQGAP2 (ab181127, 3 ug) or IgG control, overnight; blots of the precipitate
[2] = biological target: IQ motif-containing GTPase activating protein 2 (IQGAP2), mouse liver (mouse (endogenous in liver)) (UniProt Q3UQ44); assay: co-IP; wildtype mouse liver lysate (fed and 24-h fasted mice) in 1% NP-40 lysis buffer; protein A/G magnetic beads prebound with anti-IQGAP2 (ab181127, 3 ug) or IgG control, overnight; blot for GYS2
[3] = biological target: IQ motif-containing GTPase activating protein 2 (IQGAP2), human, in HEK293T cells (human (endogenous in HEK293T)) (UniProt Q13576); assay: co-IP; HEK293T cell lysate in 1% NP-40 lysis buffer (25 mM Hepes pH 7.8, 150 mM NaCl, 5 mM EDTA, 0.5 mM CaCl2); protein A/G magnetic beads prebound with anti-IQGAP2 (ab181127, 3 ug) or IgG control, overnight; blots of the precipitate; remark: listed apart in the source

binding [1]: binds
Molecule: insulin receptor substrate 1 (IRS1), in HEK293T cells (from UniProt P35568 1-1242)

binding [2]: binds
B1: glycogen synthase (GYS2), mouse liver (protein, UniProt Q8VCB3 1-704)
chain: MLRGRSLSVTSLGGLPVWEAERLPVEDLLLFEVSWEVTNKVGGICTVIQTKAKTTADEWGENYFLIGPYFEHNMKTQVEQCEPTNDAVRKAVDAMNKHGCQVHFGRWLIEGSPYVVLFDISSSAWNLDRWKGDFWEACGVGIPHHDREANDMLIFGSLTAWFLKEVTDHADGKHVIAQFHEWQAGTGLILSRARKLPIATVFTTHATLLGRYLCAANIDFYNQLDKFDIDKEAGERQIYHRYCMERASVHCAHVFTTVSEITAIEAEHMLKRKPDVVTPNGLNVKKFSAVHEFQNLHAMYKARIQDFVRGHFYGHLDFDLEKTLFLFIAGRYEFSNKGADIFLESLSRLNFLLRMHKSNVTVVVFFIMPAKTNNFNVETLKGQAVRKQLWDTVHCLKEKFGKKLYDGLLRGEIPDMNSILDRDDLTIMKRAIFSTQRQSLPPVTTHNMIDDSTDPILSTIRRIGLFNNRADRVKVILHPEFLSSTSPLLPMDYEEFVRGCHLGVFPSYYEPWGYTPAECTVMGIPSVTTNLSGFGCFVQEHVADPTAYGIYIVDRRFRSPDDSCNQLTQFLYGFCKQSRRQRIIQRNRTERLSDLLDWRYLGRYYQHARHLTLSRAFPDKFHLEPTSPPTTDGFKYPRPSSVPPSPSGSQASSPQCSDAEDEEDEDERYDEEEEAERDRLNIKSPFSLNHFPKGKKKLHGEYKN

binding [3]: binds
B2: glycogen synthase (GYS2), in HEK293T cells (protein, UniProt P54840 1-703)
chain: MLRGRSLSVTSLGGLPQWEVEELPVEELLLFEVAWEVTNKVGGIYTVIQTKAKTTADEWGENYFLIGPYFEHNMKTQVEQCEPVNDAVRRAVDAMNKHGCQVHFGRWLIEGSPYVVLFDIGYSAWNLDRWKGDLWEACSVGIPYHDREANDMLIFGSLTAWFLKEVTDHADGKYVVAQFHEWQAGIGLILSRARKLPIATIFTTHATLLGRYLCAANIDFYNHLDKFNIDKEAGERQIYHRYCMERASVHCAHVFTTVSEITAIEAEHMLKRKPDVVTPNGLNVKKFSAVHEFQNLHAMYKARIQDFVRGHFYGHLDFDLEKTLFLFIAGRYEFSNKGADIFLESLSRLNFLLRMHKSDITVMVFFIMPAKTNNFNVETLKGQAVRKQLWDVAHSVKEKFGKKLYDALLRGEIPDLNDILDRDDLTIMKRAIFSTQRQSLPPVTTHNMIDDSTDPILSTIRRIGLFNNRTDRVKVILHPEFLSSTSPLLPMDYEEFVRGCHLGVFPSYYEPWGYTPAECTVMGIPSVTTNLSGFGCFMQEHVADPTAYGIYIVDRRFRSPDDSCNQLTKFLYGFCKQSRRQRIIQRNRTERLSDLLDWRYLGRYYQHARHLTLSRAFPDKFHVELTSPPTTEGFKYPRPSSVPPSPSGSQASSPQSSDVEDEVEDERYDEEEEAERDRLNIKSPFSLSHVPHGKKKLHGEYKN
